“And” between values parts separate entries of the source, which are not always exact repeats. Equal entries are not always repeated. The list shows a part of the results. Single values are uncertain here, since repeats match poorly.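 HEK293T cells were given each compound shortly before transfection with a reporter in which red mCherry is followed by the SARS-CoV-2 frameshift element and then GFP in the −1 frame, so GFP appears only after frameshifting.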
Assays:
[1] = test system: SARS-CoV-2 -1 PRF reporter mCherry-FSE-GFP(-1); assay: mCherry (red) intensity as percent of control; higher = higher upstream reporter expression; details: 10 µM; 24 h; HEK293T
[2] = test system: SARS-CoV-2 -1 PRF reporter mCherry-FSE-GFP(-1); assay: percent effect, decrease of GFP/mCherry ratio (-1 PRF reporter) relative to controls; higher = stronger frameshift inhibition; details: 10 µM; 24 h; HEK293T

SMILES | mCherry [1] | percent effect [2]
CCN(CC)CCOC(=O)C(Cc1cccc2ccccc12)CC1CCCO1 (mixture of isomers) [naftidrofuryl] | 112% | -2.38%
CCOC(=O)[C@H]1O[C@@H]1C(=O)N[C@@H](CC(C)C)C(=O)NCCC(C)C [aloxistatin] | 118% | -0.00887%
COc1nsnc1NS(=O)(=O)c1ccc(N)cc1 [sulfametrole] | 69.6% | -0.341%
CC/C=C\C/C=C\C/C=C\CCCCCCCC(=O)O | 112% and 106% | -2.02% and -0.648%
CNC(=C[N+](=O)[O-])NCCSCc1ccc(CN(C)C)o1 | 95.2% | -6.81%
C[C@H]1[C@H](NC(=O)/C(=N\OC(C)(C)C(=O)O)c2csc(N)n2)C(=O)N1S(=O)(=O)O [aztreonam] | 131% | 2.36%
Oc1ccc(O)cc1 | 85.4% | -4.64%
COc1ccc2c(c1)C(=O)N(CCc1ccc(S(=O)(=O)NC(=O)NC3CCCCC3)cc1)C(=O)C2(C)C [Gliquidone] | 89.4% | -0.593%
C[C@@H]1C[C@H]2[C@@H]3CCC4=CC(=O)C=C[C@]4(C)[C@@]3(Cl)[C@@H](O)C[C@]2(C)[C@@]1(O)C(=O)CCl [mometasone] | 86.2% | 0.849%
NC(=O)CC[C@@H]1NC(=O)[C@H](Cc2ccccc2)NC(=O)[C@H](Cc2ccc(O)cc2)NC(=O)[C@@H](N)CSSC[C@@H](C(=O)N2CCC[C@H]2C(=O)N[C@@H](CCCN=C(N)N)C(=O)NCC(N)=O)NC(=O)[C@H](CC(N)=O)NC1=O [argipressin] | 95.9% | -0.419%
CCC1=C(C)CN(C(=O)NCCc2ccc(S(=O)(=O)NC(=O)N[C@H]3CC[C@H](C)CC3)cc2)C1=O [glimepiride] | 104% | 0.486%

Some of the entries so far, in CSV form.
SMILES,mCherry [1],percent effect [2]
C[C@H]1[C@H](NC(=O)/C(=N\OC(C)(C)C(=O)O)c2csc(N)n2)C(=O)N1S(=O)(=O)O [aztreonam],131%,2.36%
Oc1ccc(O)cc1,85.4%,-4.64%

Reference: the supplement of paper PMC8256030
